According to PMC12459184, “Design, synthesis, and bioevaluation of pyrazole-containing tubulin polymerisation inhibitors based on conformational constraint strategy” (Journal of Enzyme Inhibition and Medicinal Chemistry, 2025):

Columns and labels:
Assay type in all cases: cell-based
HCT-116 cells = assay: MTT antiproliferative assay, HCT-116; details: Homo sapiens, 72 h drug exposure, read-out: IC50 (μM) ± SD HCT-116
Protocol: (§1) Additional cell lines including human colon cancer cell line HCT-116, human non-small cell lung cancer cell line A549, and human prostate cancer cell line PC-3 were brought to test the antiproliferative activities of potent compounds 4k and 5a.
(§2) All cell lines tested in this study were purchased from the American Type Culture Collection (ATCC, Manassas, VA). SGC-7901 (human gastric adenocarcinoma), HCT-116 (human colon carcinoma), and A549 (human pulmonary carcinoma) cells were cultured in RPMI-1640 medium containing 10% foetal serum (FBS) and 1% penicillin-streptomycin solution (100×). MCF-7 (human breast carcinoma) cells were cultured in DMEM medium containing 10% foetal serum (FBS) and 1% penicillin-streptomycin solution (100×). PC-3 (human prostate carcinoma) cells were cultured in Ham’s F-12K medium containing 10% foetal serum (FBS) and 1% penicillin-streptomycin solution (100×). All cells were cultured at 37 °C in a humidified atmosphere containing 5% CO2.
(§3) Cells grown in logarithmic phase were harvested and seeded onto 96-well cell plates at a density of 4 ∼ 5 × 10^3 cells per well (various from cell type) and were cultured for 24 h. […] 150 μL of DMSO was added to each well to dissolve the formazan, and the absorbance at 490 nm of each well was measured by a microplate reader. IC50 values were calculated by SPSS software.

human liver cells (L02) = assay: MTT toxicity assay, normal cells L02; details: 72 h, read-out: IC50 (μM) ± SD L02
Protocol: (§4) The toxicity of compounds 4k and 5a was also tested by using human umbilical vein endothelial cells (HUVEC) and human liver cells (L02).
(§5) Cells grown in logarithmic phase were harvested and seeded onto 96-well cell plates at a density of 4 ∼ 5 × 10^3 cells per well (various from cell type) and were cultured for 24 h. Different concentrations of compounds were added into the wells, and the cells were cultured for another 72 h. The medium was removed, then 20 μL of MTT (5 mg/mL in PBS) was added to each well and the cells were incubated for 4 h. 150 μL of DMSO was added to each well to dissolve the formazan, and the absorbance at 490 nm of each well was measured by a microplate reader. IC50 values were calculated by SPSS software.

SGC-7901 cells = assay: MTT antiproliferative assay, SGC-7901; details: Homo sapiens, SGC-7901, 72 h, read-out: IC50 (μM) ± SD SGC-7901
Protocol: (§6) The in vitro antiproliferative activities of all target compounds 4a−k, 5a−h, and 6a−h were assayed by MTT method using human gastric cancer cell line SGC-7901 and human breast cancer cell line MCF-7. Colchicine was used as the positive control.
as §2, §3

A549 cells = assay: MTT antiproliferative assay, A549; details: Homo sapiens, 72 h drug exposure, read-out: IC50 (μM) ± SD A549
Protocol: as §1, §2, §3

PC-3 cells = assay: MTT antiproliferative assay, PC-3; details: Homo sapiens, 72 h drug exposure, read-out: IC50 (μM) ± SD PC-3
Protocol: as §1, §2, §3

[1] = test system: human umbilical vein endothelial cells (HUVEC); assay: MTT toxicity assay, normal cells HUVEC; details: 72 h, read-out: IC50 (μM) ± SD HUVEC
Protocol: as §4, §5

MCF-7 cells = assay: MTT antiproliferative assay, MCF-7; details: Homo sapiens, MCF7, 72 h, read-out: IC50 (μM) ± SD MCF-7
Protocol: as §6, §2, §3

COc1cc2c(c(OC)c1OC)-c1ccc(OC)c(=O)cc1[C@@H](NC(C)=O)CC2 [Colchicine, reference compound]
IC50 (HCT-116 cells): 0.039 ± 0.008 µM | IC50 (human liver cells (L02)): 0.012 ± 0.003 µM | IC50 (SGC-7901 cells): 0.031 ± 0.006 µM | IC50 (A549 cells): 0.043 ± 0.015 µM | IC50 (PC-3 cells): 0.015 ± 0.003 µM | IC50 [1]: 0.21 ± 0.078 µM | IC50 (MCF-7 cells): 0.043 ± 0.016 µM
